Data: PubChem BioAssay AID1487 (National Center for Advancing Translational Sciences (NCATS), 2009)
The other results are listed elsewhere or left out. Shown are side measurements of this screen, not its main read-out; they come without a call. Most of these compounds were active or inconclusive in the main read-out, so they are no random draw. Words in brackets tell the shape of the fitted curve; partial curves, single points and poor fits give uncertain potencies.

Experiment: qHTS Assay for Modulators of Lamin A Splicing
Conditions: HeLa LMNA splicing GFP/RFP minigene ratio, 48 h
How it was run: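 S3 HeLa cells stably expressing lamin A-EGFP splicing minigene plus DsRed2, 600 cells/well, 48 h compound exposure at 37C. Laser-scanning cytometry; analysed as GFP (500-530 nm)/RFP (575-640 nm) total intensity ratio; 0.5% DMSO vehicle.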

[1] = measured here: GFP splicing reporter channel
[2] = measured here: RFP viability control channel

Row | Compound | AC50 [1] | AC50 [2]
1 | Cc1c(Cl)cccc1NC(=O)CCCn1nc([N+](=O)[O-])cc1C | 10 µM [falling, partial curve] | 10 µM [falling, partial curve]
2 | O=S(=O)(Nc1ncnc2sc3c(c12)CCC3)c1cc(F)ccc1F |  | 0.2 µM [falling, full curve, poor fit]
3 | CC1CCCCN1C(=S)Nc1ccc(OC(F)F)cc1 (stereo unspecified) | 17.8 µM [rising, single point] | 35.5 µM [rising, single point]
4 | Cc1ccc([N+](=O)[O-])cc1NC(=O)C1CCN(S(C)(=O)=O)CC1 |  | 0.00501 µM [falling, full curve, poor fit]
5 | C#CCOCCOCCOCCNc1nc(N2CCOCC2)nc(N2CCN(C(=O)Cn3cc(CCCN=C(N)N)nn3)CC2)n1 | 1.12 µM [falling, full curve, poor fit] | 0.178 µM [falling, full curve]
6 | O=C1N(CN2CCN(Cc3ccccc3)CC2)c2ccccc2C12OCCCO2 |  | 2.24 µM [falling, partial curve, poor fit]
7 | COc1cc(-c2n[nH]c(=S)n2-c2cccc(C(F)(F)F)c2)cc(OC)c1OC |  | 35.5 µM [rising, single point]
8 | CCN(CC)c1ccc(/C=N/NC(=S)NCc2ccc(OC)cc2)cc1 |  | 11.2 µM [rising, partial curve]
9 | CCCCOc1ccc(CONS(=O)(=O)c2ccc(NC(C)=O)cc2)cc1Cl |  | 22.4 µM [rising, partial curve]
10 | Nc1ncnc2nc(SCc3ccccc3)[nH]c12 | 0.00501 µM [rising, full curve, poor fit] | 0.00501 µM [rising, full curve, poor fit]
11 | O=C(c1cccc(C(F)(F)F)c1)N1CCCCCC1 |  | 22.4 µM [rising, partial curve, poor fit]
12 | COc1ccc(-c2nnc(SCC(=O)Nc3ccccc3)n2C)cc1 |  | 0.631 µM [rising, partial curve]
13 | CC1(C)Cc2c(cnn2-c2ccccc2)-c2c1c1ccccc1n2CC(O)CBr (stereo unspecified) | 17.8 µM [rising, single point] | 14.1 µM [rising, partial curve]
14 | Cc1ccc(C(=O)CSc2nc3c([nH]2)c(=O)n(C)c(=O)n3C)cc1 | 0.00631 µM [rising, full curve, poor fit] | 0.00355 µM [rising, full curve]
15 | CC(=O)c1ccc(NC(=O)c2c(C)nn(-c3ccccc3)c2Cl)cc1 | 35.5 µM [falling, single point] | 35.5 µM [falling, single point]
16 | CC1CC2=C(CC1/C=N/NC(N)=S)C(C)(C)CCC2 (stereo unspecified) | 12.6 µM [rising, single point] | 
17 | Nc1nnc(N2CCCCC2)s1 | 0.158 µM [rising, full curve, poor fit] | 
18 | CC(C)(C)C(=O)Nc1nc(C2CCCN2S(=O)(=O)c2ccc(Cl)cc2)cs1 (stereo unspecified) |  | 22.4 µM [rising, single point]
19 | CCc1ccc2[nH]c(=O)c(CN(Cc3ccc(OC)cc3)Cc3nnnn3CCOC)cc2c1 | 35.5 µM [rising, single point] | 0.355 µM [rising, partial curve, poor fit]

Row | Compound | AC50 [1] | AC50 [2]
20 | COc1cccc(-n2c(SCC(=O)NCc3ccco3)nnc2-c2c[nH]c3ccccc23)c1 |  | 14.1 µM [rising, partial curve, poor fit]
21 | CCC(C(=O)NC1CCCCC1)n1c(SCc2cccc(C)c2)nc2ccncc21 (stereo unspecified) |  | 12.6 µM [rising, partial curve]
22 | COc1cc(/C=N/OCC(=O)NC2CCCCC2)ccc1OCc1ccccc1 | 11.2 µM [rising, partial curve] | 15.8 µM [rising, single point]
23 | CCCc1cc(N2CCCC(C(=O)NCC)C2)n2ncnc2n1 (stereo unspecified) |  | 3.98 µM [rising, single point]
24 | O=C(CCc1ccccc1)N1CCN(c2ccccn2)CC1 | 8.91 µM [rising, partial curve] | 
25 | O=C(CCCN1C(=O)c2cccc3cccc(c23)C1=O)N1CCN(c2ccccc2O)CC1 |  | 14.1 µM [rising, partial curve]
26 | Cc1ccc(-n2nnnc2SCC(=O)NC2CCCc3ccccc32)c(C)c1 (stereo unspecified) | 20 µM [rising, partial curve, poor fit] | 28.2 µM [rising, single point]
27 | Cc1cccc(Nc2nnc(SCC3CCCCO3)s2)c1C (stereo unspecified) |  | 25.1 µM [rising, single point]
28 | COc1cc(C(=O)Nc2ccc3c(c2)N(C(=O)CCN(C)C)c2ccccc2CC3)cc(OC)c1OC | 10 µM [falling, partial curve] | 8.91 µM [falling, partial curve, poor fit]
29 | Cc1ccc(/C=C/C(=O)Nc2ccc(Oc3ccccc3)cc2)o1 |  | 5.62 µM [rising, single point]
30 | Fc1ccc(NC(=S)N/N=C/c2ccc(F)c(F)c2)cc1 | 17.8 µM [rising, single point] | 
31 | O=S(=O)(NCc1ccncc1)c1ccc(Br)s1 |  | 1.41 µM [rising, full curve]
32 | Cc1ccc(CNC(=O)C2CCCN(c3nc4ccsc4c(=O)s3)C2)cc1 (stereo unspecified) |  | 20 µM [falling, single point]
33 | Cc1nc2ccccn2c1-c1csc(NCc2ccco2)n1 |  | 12.6 µM [rising, partial curve]
34 | CC1=CC(C)(C)Nc2ccc(OC(=O)c3cccnc3)cc21 |  | 10 µM [falling, partial curve]
35 | COC(=O)CSc1nnc(-c2ccc(OC)c(OC)c2)o1 | 0.0794 µM [falling, full curve, poor fit] | 
36 | CCn1cc(-c2cc(C(=O)O)c3ccccc3n2)cn1 |  | 2.51 µM [falling, partial curve, poor fit]
37 | Cc1cccc(N2CCN(c3ncnc4c3nc3n4CCCCC3)CC2C)c1 (stereo unspecified) | 11.2 µM [falling, partial curve] | 35.5 µM [falling, single point]
38 | CC(=O)N(c1cccc(C)c1)S(=O)(=O)c1ccc(Cl)cc1 |  | 11.2 µM [rising, partial curve, poor fit]

Quoted at random: 3 entries already listed.
Row | Compound | AC50 [1] | AC50 [2]
21 | CCC(C(=O)NC1CCCCC1)n1c(SCc2cccc(C)c2)nc2ccncc21 (stereo unspecified) |  | 12.6 µM [rising, partial curve]
24 | O=C(CCc1ccccc1)N1CCN(c2ccccn2)CC1 | 8.91 µM [rising, partial curve] | 
28 | COc1cc(C(=O)Nc2ccc3c(c2)N(C(=O)CCN(C)C)c2ccccc2CC3)cc(OC)c1OC | 10 µM [falling, partial curve] | 8.91 µM [falling, partial curve, poor fit]

Continued.

Row | Compound | AC50 [1] | AC50 [2]
39 | COc1ccc(OC)c(-c2cc(C(=O)Nc3c(C)nn(Cc4ccccc4C)c3C)no2)c1 | 11.2 µM [rising, partial curve] | 14.1 µM [rising, partial curve]
40 | NC(=O)c1nsc(C(=O)N(c2ccc(Cl)cc2)C(C(=O)NCC2CCCO2)c2cccs2)c1N (stereo unspecified) |  | 35.5 µM [falling, single point]
41 | Cc1cc(S(=O)(=O)Nc2cccc(O)c2)c(C)s1 |  | 35.5 µM [rising, single point]
42 | C(=N\NC1=Nc2cccc3cccc1c23)/c1ccccc1 | 0.141 µM [rising, full curve] | 0.282 µM [rising, full curve]
43 | Cc1c(C#N)c2ccccc2n1CCOc1ccccc1F |  | 35.5 µM [rising, single point]
44 | COC(=O)c1ccc(-n2nnnc2SCc2ccccc2OC)cc1 | 17.8 µM [rising, single point] | 35.5 µM [rising, single point]
45 | CCCc1n[nH]c2c1/C(=N/O)CC(c1ccccc1)C2 (stereo unspecified) |  | 10 µM [rising, partial curve]
46 | Cc1ccc(NC(=O)CNc2ccc(Cl)c(Cl)c2)cc1S(=O)(=O)N(C)C |  | 6.31 µM [rising, full curve]
47 | Cc1cc(C(=O)COC(=O)c2ccc3c(c2)NC(=O)CS3)c(C)n1CC1CCCO1 (stereo unspecified) | 14.1 µM [rising, partial curve] | 14.1 µM [rising, single point]
48 | CC(=O)C1=C(c2ccc(Cl)c(Cl)c2)N(C(C)=O)n2c(nnc2-c2ccccc2)S1 |  | 0.708 µM [rising, full curve, poor fit]
49 | CCOc1ccccc1NC(=O)c1cccc(NC(=O)c2ccco2)c1 |  | 3.16 µM [rising, full curve]
50 | CC(C)CC(=O)c1c[nH]c(C(=O)NCc2cccnc2)c1 | 8.91 µM [falling, single point] | 1.12 µM [falling, partial curve]
51 | CC(=O)Nc1nonc1-c1nnc(SCC(=O)Nc2cc(Cl)ccc2C)n1C | 0.00282 µM [rising, full curve, poor fit] | 
52 | COc1ccc(CC(=O)Nn2c(-c3ccccc3)nc3ccccc3c2=O)cc1 | 35.5 µM [rising, single point] | 31.6 µM [rising, single point]
53 | COc1cccc(C2C=C(c3ccccc3)Nc3c(C(=O)Nc4ccccc4)cnn32)c1OC (stereo unspecified) |  | 25.1 µM [rising, single point]
54 | CC(=O)N1CCCc2cc(S(=O)(=O)NC(C(=O)NC(C)c3ccccc3)C(C)C)ccc21 (stereo unspecified) | 6.31 µM [rising, partial curve, poor fit] | 1.26 µM [rising, full curve]
55 | Cc1cc(N2CCCCC2)nc(NCc2ccccc2)n1 | 12.6 µM [falling, partial curve, poor fit] | 
56 | CCOC(=O)C1=C(O)CSC1=Nc1ccccc1 | 10 µM [rising, partial curve, poor fit] | 
57 | CC(O)CN(C)CC/C=C1/c2ccccc2CSc2ccccc21 (stereo unspecified) |  | 35.5 µM [rising, single point]
